Data: PMC8237857

Biological target: T1, Flag-SNAPIN (Snapin full length in PCDH-3xFlag-3xHA-EF1-puromycin vector) (UniProt Q9Z266)
T1 sequence: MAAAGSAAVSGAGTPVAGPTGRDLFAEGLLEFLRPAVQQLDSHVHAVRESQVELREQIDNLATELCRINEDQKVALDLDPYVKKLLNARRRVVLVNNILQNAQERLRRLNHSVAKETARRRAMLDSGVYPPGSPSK
Assay: affinity purification with mass spectrometry; Min6 cells expressing Flag-SNAPIN or PCDH vector; whole cell lysates on Flag beads, eluted with Flag peptide; shotgun LC-MS/MS; each IP in triplicate

binding: binds
B1: Bloc1s1 (protein, UniProt O55102 1-125)
chain: MLSRLLKEHQAKQNERKELQEKRRREAIAAATCLTEALVDHLNVGVAQAYMNQRKLDHEVKTLQVQAAQFAKQTGQWIGMVENFNQALKEIGDVENWARSIELDMRTIATALEYVYKGQLQSAPS

These are yes or no findings as the source states them, for the method shown. In cells and extracts the contact can be indirect. Here binding means that the protein was enriched with, or labelled near, the bait; the list need not be complete. Where a sequence is shown, tags or fusion partners need not be part of it.
